Patent US9539248B2, “Agent for ameliorating chronic obstructive pulmonary disease” (LTT BIO-PHARMA CO., LTD., priority 2012, dated 2017)

Test system: poor lung function induced by porcine pancreatic elastase
Assay: Test Example 3: FEV0.05/FVC in poor lung function induced by porcine pancreatic elastase, compared with muscarinic antagonists
Assay type: in vivo, ICR mice
Conditions: 38 μg/kg by airway administration once daily for 11 days, measured on Day 14 (FIG. 10)
Procedure: Measurement of a ratio of forced expiratory volume (FEV) in the first 0.05 seconds to forced vital capacity (FVC) (FEV0.05/FVC) was performed by using the above-mentioned computer-controlled small animal ventilator connected to a negative pressure reservoir (SCIREQ Scientific Respiratory Equipment Inc.). FEV0.05/PVC was determined by using the FlexiVent software. As with Test Example 1, 4 to 6 week old ICR mice were treated with porcine pancreatic elastase. […] On Day 14, FEV0.05/FVC was measured by the method described in the above-mentioned “Measurement of FEV0.05/FVC.”

Compound	recovering effect of vital capacity represented by FEV0.05/FVC reduced by PPE administration
CC(C)[N+]1(C)[C@@H]2CC[C@H]1C[C@@H](OC(=O)C(CO)c1ccccc1)C2 (some centres unmarked) [ipratropium]	did not show a significant recovering effect
CN1[C@@H]2C[C@@H](OC(=O)[C@H](CO)c3ccccc3)C[C@H]1[C@@H]1O[C@@H]12 [scopolamine]	did not show a significant recovering effect
